This passage reports AC50 results from PubChem BioAssay AID493014 (National Center for Advancing Translational Sciences (NCATS), 2011).

SMILES strings stand for the structures. The list shows a part of the results. Shown are side measurements of this screen, not its main read-out; they come without a call. The list favours compounds with an active or inconclusive main result. Potencies come from curve fits of mixed quality, noted in brackets.

A short description of the test: qHTS Assay to Find Inhibitors of Chronic Active B-Cell Receptor Signaling. The note with it: ABC-DLBCL IkBa-CBG/CBR reporter, luminescence ratio (green luciferase fused to IkBa over red control in TMD8 lymphoma cells), 4 h. The gist of the method: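 TMD8 human ABC-DLBCL cells with doxycycline-inducible IκBα–green luciferase fusion and unfused red luciferase, in 0.5% FBS medium; compounds up to 46 uM, 4 h at 37C. Green/red luminescence ratio, filter-overlap corrected, fitted to concentration-response curves.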
On the technique in general: qHTS replaces the single test concentration by a dilution series.

[1] abbreviates: measured here: CBR red luminescence, cell number.
[2] abbreviates: measured here: IkBa-CBG green luminescence.

`COc1ccc(-c2cc(C(F)(F)F)nc(SCC(=O)N(C)Cc3cn(C)nc3C)n2)cc1OC`: the AC50 under setting [1] was 23.1 µM [rising, partial curve].

As to `CSc1nc(-c2ccccc2)nc(N2CCN(C)CC2)c1C(C)=O`, under setting [1], the AC50 was 35.5 µM [falling, single point].

In the case of `CC(=O)N[C@@H](Cc1c[nH]c2ccccc12)C(=O)OCC(=O)Nc1ccc(Cl)c(S(=O)(=O)N(C)C)c1`, the AC50 under setting [1] was 1.26 µM [rising, full curve].

As to `c1ccc(-c2noc(CSc3nc4ccccc4o3)n2)cc1`, the AC50 under setting [1] is 7.94 µM [rising, partial curve].

Consider `Cn1c(=O)n(CCOc2ccc(Cl)cc2Cl)c2ccccc21`, for which the AC50 under setting [1] was 14.6 µM [rising, partial curve, poor fit].

In the case of `Cc1ccc(Cl)cc1-n1ncc2c(NCCc3ccccc3)ncnc21`, the AC50 is, setting by setting: under setting [1], 6.31 µM [falling, single point]; under setting [2], 3.55 µM [rising, partial curve, poor fit].

Take `Cc1cccc(CSc2cn(CC(=O)N3CCOCC3)c3ccccc23)c1`: the AC50 under setting [1] was 13 µM [falling, single point].

For the compound `c1ccc(CSC2=NNC(c3ccccn3)S2)cc1` (stereo not drawn), the AC50 under setting [1] was 4.47 µM [rising, full curve, poor fit].

Turning to `CC(C)Cc1ccc(/C=C/C(=O)N2CCOCC2)cc1`, the AC50 under setting [1] was 3.55 µM [rising, full curve, poor fit].

Regarding `COC(=O)CC1C(=O)NCCN1C(=O)CSc1nnnn1-c1ccc(Cl)cc1` (stereo not drawn), under setting [1], the AC50 was 35.5 µM [rising, single point].

In the case of `c1ccc2[nH]c(-c3nc4ccccc4[nH]3)nc2c1`, the AC50 under setting [1] is 5.17 µM [falling, full curve, poor fit].

As to `Nc1nc(-c2ccc3ccccc3c2)cs1`, the AC50 under setting [1] is 0.891 µM [rising, full curve, poor fit].

As to `CCOc1ccc2nc(NC(NC(C)=O)(C(=O)OC)C(F)(F)F)sc2c1` (stereo not drawn), under setting [1], the AC50 is 10 µM [rising, partial curve].

In the case of `CCOC(=O)c1c(-c2ccccc2)csc1NC(=O)CCN1CCOCC1`, under setting [1], the AC50 was 29.1 µM [falling, single point].

As to `CN1CCN(c2ccc(NC(=O)c3cccc(OCc4ccccc4)c3)cc2)CC1`, under setting [1], the AC50 was 29.1 µM [falling, single point].

In the case of `CC1=NN(C(N)=S)C(=O)C1N=Nc1ccc(F)cc1` (stereo not drawn), the concentration at half-maximal activity (AC50) under setting [2] was 0.794 µM [falling, full curve].

In the case of `C=C(C)C(=O)OCCCCCCOc1ccc(C(=O)O)cc1`, the AC50 under setting [1] was 29.1 µM [falling, single point].

Regarding `Cc1nn(Cc2ccccc2)c(Cl)c1C(=O)NCCc1ccccc1`, the AC50 under setting [1] was 11.6 µM [rising, partial curve].

Turning to `Cc1c(C(=O)N/N=C/c2ccccc2)[nH]c2c([N+](=O)[O-])cccc12`, the AC50 under setting [1] is 0.447 µM [falling, partial curve, poor fit].

For `Nc1nc(N(Cc2ccccc2)Cc2ccccc2)nc(C(F)(F)F)n1`, under setting [1], the AC50 was 3.26 µM [rising, full curve, poor fit].

With `Cc1cccnc1NC(=O)C(c1ccccc1)c1ccccc1`, the AC50 under setting [1] was 5.62 µM [rising, single point].

In the case of `N#Cc1c(N)nc2c(c1-c1ccc3c(c1)OCO3)CCCCCC2`, the AC50 under setting [1] was 6.31 µM [falling, single point].

As to `Cc1oc2cc(Br)c(O)c(Br)c2c1C(=O)c1ccccc1`, under setting [1], the half-maximal activity concentration (AC50) is 35.5 µM [rising, single point].

Take `O=C(NCc1cccnc1)C(=O)c1c[nH]c2ccccc12`: the half-maximal activity concentration (AC50) under setting [1] was 14.1 µM [falling, partial curve].

Regarding `CSc1nsc(SCC(=O)NC2CCCCC2)n1`, the AC50 under setting [1] was 20.6 µM [falling, single point].

Consider `N[C@@H](Cc1ccccc1)C(=O)N1CCC(C(=O)NCC(=O)Nc2ccc(F)cc2)CC1`, for which, under setting [1], the AC50 is 11.2 µM [falling, single point].

With `O=C1C2ON(c3ccccc3)C(c3cccnc3)C2C(=O)N1Cc1ccccc1` (stereo not drawn), under setting [1], the AC50 was 11.2 µM [falling, partial curve, poor fit].

For the compound `CN1C[C@@H]2C[C@@H](C3=Cc4cc(Cl)ccc4OC3)N3CCC[C@@]23C1=O`, the AC50 under setting [1] is 5.62 µM [falling, full curve].

`CC(C)(C)NCC(O)COc1cccc2c1C[C@H](O)[C@H](O)C2` (stereo partly drawn): the AC50 under setting [1] is 0.731 µM [falling, partial curve, poor fit].

As to `CCOC(=O)C1=C(COC(=O)CCOc2ccc(OCC)cc2)NC(=O)NC1C` (stereo not drawn), the AC50 under setting [1] is 0.517 µM [rising, partial curve, poor fit].

Turning to `O=C(O)C1C2CCC(O2)C1C(=O)Nc1cccc(F)c1` (stereo not drawn), under setting [1], the AC50 was 35.5 µM [rising, partial curve, poor fit].

On to `CCOC(=O)c1cc2c(ccn2C)n1CC(=O)Nc1ccc(F)cc1`, for which the AC50 under setting [1] is 35.5 µM [falling, single point].

`C=CCn1c(Sc2nnc(C)s2)nc2c1c(=O)[nH]c(=O)n2C`: the AC50 under setting [1] was 4.47 µM [rising, partial curve, poor fit].

With `COC(=O)C1CCN(C(=O)COC(=O)c2n[nH]c3ccccc23)CC1`, the AC50 under setting [1] was 3.98 µM [falling, partial curve].

Regarding `Cc1ccccc1-c1nc(S(=O)(=O)c2ccccc2)c(NCCCN2CCOCC2)o1`, under setting [1], the AC50 is 0.231 µM [rising, partial curve, poor fit].

In the case of `O=C(Nc1ccc2c(c1)CCC2)Nc1ccccc1Cl`, the AC50 under setting [1] is 10 µM [falling, partial curve, poor fit].

On to `O=C(N/N=C/c1ccco1)c1cc(-c2ccccc2)nc2ccccc12`, for which the AC50 under setting [1] was 14.1 µM [falling, partial curve, poor fit].

For `CCCCN(C(=O)CCC(=O)OCC(=O)NCc1ccccc1)c1c(N)n(CCC)c(=O)[nH]c1=O`, the AC50 under setting [1] is 0.146 µM [falling, full curve, poor fit].

For the compound `CCc1cc(=O)oc2c3c(cc(OCC(=O)NCc4ccco4)c12)OC(C)(C)CC3`, under setting [1], the half-maximal activity concentration (AC50) was 35.5 µM [falling, single point].

As to `Cc1nc(C)c(C(=O)NCc2ccccc2Cl)o1`, the AC50 under setting [1] is 20 µM [falling, single point].

As to `O=C(CN1CCCC1)Nc1ccc(OCc2ccccc2)cc1`, the AC50 under setting [1] is 17.8 µM [rising, single point].

For the compound `CCCCC(=O)NC(=S)Nc1cc(C(=O)O)ccc1OC`, the AC50 under setting [1] was 35.5 µM [falling, partial curve, poor fit].

In general, AC50 refers to the midpoint of the concentration-response curve, whichever way the signal moves.
